From PubChem BioAssay AID2685 (National Center for Advancing Translational Sciences (NCATS), 2010)
This is one part of the list. Further columns of the screen follow, without active or inactive calls. Most of these compounds were active or inconclusive in the main read-out, so they are no random draw. The note in brackets gives the kind of curve behind each potency; many fits are weak.

Assay: qHTS Assay for Lipid Storage Modulators in Drosophila S3 Cells;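 as to cell number change: cells counted by Cell Tracker Red CMTPX staining in the red channel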
Settings: BODIPY lipid droplet fluorescence, 18-24 h; for cell number change: measured here: cell count max response, cells fed with added oleic acid
In short: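 Drosophila S3 cells loaded with oleic acid (400 uM, as added) and compounds at several concentrations; lipid droplets imaged by 488-nm laser-scanning cytometry, 500–530 nm intensity and object ratio to cell channel. Percent activity normalized to 20 uM Triacsin C.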

[1] = measured here: cell number channel AC50, cells fed with added oleic acid
[2] = measured here: lipid fluorescence (Fed channel) AC50, cells fed with added oleic acid

SMILES	cell number change [%]	AC50 [1]	AC50 [2]
Cc1cc(/C=N/NC(=O)c2cccc(F)c2)c(C)n1-c1ccccc1	80.1	29.1 µM [rising, single point]	
Cc1c(NC(=O)COC(=O)c2ccc(F)c(S(=O)(=O)N3CCOCC3)c2)c(=O)n(-c2ccccc2)n1C			4.61 µM [falling, partial curve]
CCOC(=O)N1CCN(Cc2nc3cc([N+](=O)[O-])ccc3n2C)CC1			0.13 µM [falling, full curve, poor fit]
CCCCN(C(=O)c1ccc(S(=O)(=O)N(C)C)cc1)c1nc2ccccc2s1	1.83		2.06 µM [rising, full curve, poor fit]
O=C(Nc1ccc(N2C(=O)C3C4C=CC(C4)C3C2=O)cc1)Nc1cccnc1 (stereo not drawn)			0.461 µM [falling, single point]
c1ccc(Nc2nc3ccccc3o2)cc1		4.61 µM [falling, single point]	
O=C(CSc1nn(-c2ccc(F)cc2)c(=S)s1)NCC1CCCO1 (stereo not drawn)	-42.3	32.6 µM [falling, single point]	18.4 µM [falling, partial curve, poor fit]
CC(CCc1ccccc1)NC(=O)[C@@H]1Cc2ccccc2CN1 (stereo partly drawn)	-9.22		
O=C(O)CC1c2ccccc2C=Cc2ccccc21	-5.79		8.2 µM [rising, partial curve]
CCS(=O)(=O)N1Cc2ccccc2CC1C(=O)N(C)Cc1ccc(OC)cc1OC (stereo not drawn)	1.25		0.411 µM [falling, partial curve]
COc1cccc(-c2nc(N3CCC(C)CC3)c3ccccc3n2)c1O	-24.6		29.1 µM [falling, single point]
Cc1cc(OCCn2nc(C(=O)O)c3ccccc3c2=O)ccc1C(C)C	-1.21		23.1 µM [falling, partial curve]
O=C(COC(=O)c1ccco1)NCc1ccc(F)cc1	-20.8		23.1 µM [falling, single point]
COc1ccc([C@H]2CC(=O)C=C(c3cccc(C(C)C)c3)C2)cc1OC	-3.62		10.3 µM [falling, single point]
CCCCn1c(N)c(N(CCC(C)C)C(=O)c2ccc3c(c2)OCO3)c(=O)[nH]c1=O	-10.3		
C=CCn1c(C)cc(-c2csc(NCC)n2)c1C	-30.5		

SMILES	cell number change [%]	AC50 [1]	AC50 [2]
Cc1cccc(CCNS(=O)(=O)c2ccc(S(=O)(=O)NC3CCCC3)cc2)c1	-12.5		4.11 µM [rising, single point]
C[C@H](NC(=O)c1nc[nH]c1C(=O)NC1CCNCC1)C(=O)OC(C)(C)C	6.34		29.1 µM [rising, single point]
O=C(c1ccco1)N1CCN(C(=O)c2cnn3c2NC(c2cccs2)CC3C(F)(F)F)CC1 (stereo not drawn)			23.1 µM [rising, partial curve]
COCC(=O)Nc1c(C(=O)N2CCCC2)oc2ccccc12	24.1		18.4 µM [rising, single point]
Cc1cccc(Nc2ccc3nonc3c2[N+](=O)[O-])c1C	42.3	0.116 µM [rising, full curve]	
CC(C)N(Cc1nccn1C)C(=O)c1ccc2oc(Cc3ccccc3)nc2c1	-4.69		0.146 µM [falling, full curve]
Cc1ccc2nc(/C(C#N)=C/c3ccc(-c4cccc([N+](=O)[O-])c4)o3)[nH]c2c1	-15.5	6.51 µM [falling, single point]	4.61 µM [falling, full curve]
Cc1ccccc1S(=O)(=O)Cc1ccc(C(=O)NC(C)c2ccc3c(c2)OCCO3)o1 (stereo not drawn)	31.4		0.82 µM [rising, full curve, poor fit]
Cc1nn(C)c(C(=O)N/N=C/c2ccc(Br)cc2)c1Cl	9.49		6.51 µM [falling, partial curve]
CCOc1cc(N2CCOCC2)c(OCC)cc1NC(=O)CN1C(=O)C2CC=CCC2C1=O (stereo not drawn)	20.4	0.164 µM [rising, full curve, poor fit]	0.184 µM [rising, full curve, poor fit]
CC(C)[C@H](NC(=O)N1CC(=O)Nc2ccccc21)C(=O)N[C@H](Cc1c[nH]c2ccccc12)C(=O)O	8.13	0.146 µM [rising, full curve, poor fit]	
O=C(O)c1cccc(CSc2n[nH]c(-c3ccc(Cl)cc3Cl)n2)c1	26.1		32.6 µM [rising, single point]
CCOc1ccc(NC(=O)C(C)NC(=O)c2ccccc2Cl)cc1S(=O)(=O)N1CCCC1 (stereo not drawn)	11.6		16.4 µM [rising, partial curve]
Cc1ccc(Nc2c(-c3ccccc3O)nc3cnccn23)cc1	-9.04	1.84 µM [falling, single point]	5.17 µM [falling, single point]
Cc1cccc2c(N=O)c(O)n(CCc3ccccc3)c12	-14.2		29.1 µM [falling, single point]

Part of the list above, set out differently:
SMILES,cell number change [%],AC50 [1],AC50 [2]
Cc1cccc(Nc2ccc3nonc3c2[N+](=O)[O-])c1C,42.3,"0.116 µM [rising, full curve]",
CC(C)N(Cc1nccn1C)C(=O)c1ccc2oc(Cc3ccccc3)nc2c1,-4.69,,"0.146 µM [falling, full curve]"
